# Laboratory results published in article doi:10.1101/2024.09.02.610768 (bioRxiv, 2024).
# Construct, isoform or probe ends are uncertain for at least one entry. For part of these data: The comparison behind a weaker result is the experiment's own reference, which may not be listed here. For part of these data: At least one verdict rests on a figure or table, not on a statement of the authors. Tags and fusion partners may be left off the protein sequences shown.
# Experiments:
# Assay in all cases: EMSA
# [1] = target: T1, FrzCDΔMA (DB-H1-H2) del138-417 (UniProt P43500); conditions: smear, unstable complex
# T1 sequence (looked up, limits assumed): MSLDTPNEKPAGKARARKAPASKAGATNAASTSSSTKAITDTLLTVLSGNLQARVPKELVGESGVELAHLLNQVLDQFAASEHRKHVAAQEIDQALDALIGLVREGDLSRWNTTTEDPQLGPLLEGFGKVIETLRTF
# [2] = target: T2, FrzCD (UniProt P43500); conditions: residues 1-417
# T2 sequence (looked up): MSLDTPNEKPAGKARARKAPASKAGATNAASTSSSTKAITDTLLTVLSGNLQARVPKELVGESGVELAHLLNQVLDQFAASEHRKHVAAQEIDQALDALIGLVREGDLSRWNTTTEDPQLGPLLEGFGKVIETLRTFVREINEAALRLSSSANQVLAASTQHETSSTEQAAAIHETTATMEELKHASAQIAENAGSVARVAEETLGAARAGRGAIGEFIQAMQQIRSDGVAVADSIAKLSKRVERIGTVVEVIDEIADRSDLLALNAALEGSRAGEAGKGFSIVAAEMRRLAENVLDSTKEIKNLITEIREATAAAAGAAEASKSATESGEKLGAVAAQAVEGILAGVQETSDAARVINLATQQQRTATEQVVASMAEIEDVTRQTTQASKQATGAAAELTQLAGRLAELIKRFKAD
# [3] = target: T3, FrzCDΔH1ΔH2 del31-137 (UniProt P43500); conditions: higher affinity than wild type
# T3 sequence (looked up, limits assumed): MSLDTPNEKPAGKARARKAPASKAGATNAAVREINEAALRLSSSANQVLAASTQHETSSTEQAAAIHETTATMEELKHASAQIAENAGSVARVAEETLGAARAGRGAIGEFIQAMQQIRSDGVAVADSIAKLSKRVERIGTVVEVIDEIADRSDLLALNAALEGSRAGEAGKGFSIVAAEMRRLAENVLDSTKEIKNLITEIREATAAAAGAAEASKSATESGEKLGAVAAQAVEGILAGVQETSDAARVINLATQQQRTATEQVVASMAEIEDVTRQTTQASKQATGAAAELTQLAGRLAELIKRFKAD
# [4] = target: T4, FrzCDΔH2 (DB-H1-MA) del84-137 (UniProt P43500)
# T4 sequence (looked up, limits assumed): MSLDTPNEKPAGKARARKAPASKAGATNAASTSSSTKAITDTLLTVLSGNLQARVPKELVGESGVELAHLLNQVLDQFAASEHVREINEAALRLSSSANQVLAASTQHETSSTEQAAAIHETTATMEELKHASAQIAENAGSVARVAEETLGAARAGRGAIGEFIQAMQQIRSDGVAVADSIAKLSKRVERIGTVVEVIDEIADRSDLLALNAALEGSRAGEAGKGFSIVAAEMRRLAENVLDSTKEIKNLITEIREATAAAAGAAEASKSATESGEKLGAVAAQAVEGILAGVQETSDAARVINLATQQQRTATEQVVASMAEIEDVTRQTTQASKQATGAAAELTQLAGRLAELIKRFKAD
# [5] = target: T5, FrzCDΔH1 del31-83 (UniProt P43500)
# T5 sequence (looked up, limits assumed): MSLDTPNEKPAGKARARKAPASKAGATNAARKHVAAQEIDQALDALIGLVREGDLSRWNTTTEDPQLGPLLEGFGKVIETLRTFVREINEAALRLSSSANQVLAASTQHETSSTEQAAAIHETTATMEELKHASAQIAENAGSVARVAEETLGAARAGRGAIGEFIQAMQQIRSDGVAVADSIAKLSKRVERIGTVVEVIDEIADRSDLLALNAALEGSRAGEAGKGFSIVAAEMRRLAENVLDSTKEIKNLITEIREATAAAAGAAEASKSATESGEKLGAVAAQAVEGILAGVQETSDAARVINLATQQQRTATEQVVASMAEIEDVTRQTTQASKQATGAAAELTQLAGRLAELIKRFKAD
Sequence,binding result [1],binding result [2],binding result [3],binding result [4],binding result [5]
TAATACGACTCACTATAGGG (double strand) [20 bp DNA],binds more weakly,binds,–,–,–
CTCACTATAGGG (double strand) [12 bp DNA],–,binds,–,–,–
GTCACCTGCTCTAGCTAATAGACTGAGCCGAGGTG (double strand) [35 bp DNA],–,binds,–,–,–
CTTGCAGTAGAGCTGACCATGATTACGCCATCAGCAGCTCCAGGTCGTACCTCCAGCTACCAATCCCCG (double strand) [69 bp DNA],–,binds,–,–,–
TAATACGACTCACTATAGGGAGACCACAACGGTTTCCCTCTAGAAATAATTTTGTTTAACTTTAAGAAGGAGATATACATATGTCCCTGGACACCCCCAACGAGAAGCCCGCTGGCAAGGCTCGCGCCCGGAAGGCCCCCGCCTCCAAGGCCGGCGCCACGAACGCGGCGTCGACCTCTTCCTCCACCAAGGCCATCACCGACACGCTGCTGACGGTGCTGTCCGGCAACCTGCAGGCCCGCGTGCCCAAGGAGCTGGTCGGTGAGTCCGGCGTGGAGCTGGCGCACCTGCTCAACCAGGTGCTGGACCAGTTCGCGGCCTCCGAGCACCGCAAGCATGTGGCGGCGCAGGAGATCGACCAGGCGTTGGATGCGCTCATCGGCCTGGTGCGCGAGGGCGGATCCCATCATCATCATCATCATTAAAAGC (double strand) [432 bp DNA],–,binds,binds,binds,binds
